Changes are numbered by the printed parent chain. Results are given in words; binding and its absence hold for the method and conditions named. For part of these data: Binding seen in cells or lysates may run through a third protein. Some results given as binding are weak or reduced against the parent protein; the word gives no strength. Where a sequence is shown, tags or fusion partners need not be part of it.
How the values were obtained:
[1] = molecular target: SDIM1-EGFP (EGFP-tagged SDIM1, from pSDIM1-EGFP) (human) (UniProt Q6ZPB5); experiment: dimer-sized band on SDS-PAGE and Western blot; total cellular proteins from pSDIM1-EGFP transfected HEK-293 cells, anti-EGFP blot (Figure 3D middle panel, lane 2)
[2] = molecular target: flag-tagged DNAJB4 (pCMV-DNAJB4-Tag1) (human) (UniProt Q9UDY4); experiment: co-IP; HEK-293 cells co-transfected with flag-tagged DNAJB4 and EGFP-tagged SDIM1; total cellular proteins immunoprecipitated with anti-flag antibody; Western blot with anti-flag, anti-SDIM1 or anti-EGFP
[3] = molecular target: T1, GST-SDIM1 fusion protein (human) (UniProt Q6ZPB5); experiment: co-IP; purified GST-SDIM1 mixed with cellular proteins from HEK-293 cells transfected with pEGFP-N1 or pSDIM1-EGFP; immunoprecipitated with anti-GST antibody; Western blot with anti-GST, anti-EGFP and anti-SDIM1; only the target purified
T1 sequence: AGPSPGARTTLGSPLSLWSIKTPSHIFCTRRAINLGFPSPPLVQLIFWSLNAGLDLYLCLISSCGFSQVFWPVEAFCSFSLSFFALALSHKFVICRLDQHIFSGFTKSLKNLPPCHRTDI

Amino acid sequences for entries named in this document (tags omitted).
UniProt Q9UDY4: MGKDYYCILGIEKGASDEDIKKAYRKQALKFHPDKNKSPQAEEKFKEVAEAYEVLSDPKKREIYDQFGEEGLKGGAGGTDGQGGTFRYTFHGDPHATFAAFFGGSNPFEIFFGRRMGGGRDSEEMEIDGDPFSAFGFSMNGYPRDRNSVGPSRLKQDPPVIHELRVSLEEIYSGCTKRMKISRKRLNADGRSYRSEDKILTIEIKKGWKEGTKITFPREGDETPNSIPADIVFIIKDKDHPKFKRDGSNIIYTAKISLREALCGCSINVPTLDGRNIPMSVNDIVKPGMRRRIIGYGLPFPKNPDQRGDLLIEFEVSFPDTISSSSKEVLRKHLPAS

- binding [1]: binds
- binding [2]: binds
- binding [3]: binds
B1: SDIM1-EGFP (EGFP-tagged SDIM1, from pSDIM1-EGFP) (protein, UniProt Q6ZPB5 27-146)
chain: T1 sequence with A1C
